# Some of the results follow.
# Chains of the proteins cited; added tags and fusions are not shown. Lines headed by an entry give the natural chain unless they say otherwise; changes in a name come on top.
# UniProt Q9P021, whole entry, looked up: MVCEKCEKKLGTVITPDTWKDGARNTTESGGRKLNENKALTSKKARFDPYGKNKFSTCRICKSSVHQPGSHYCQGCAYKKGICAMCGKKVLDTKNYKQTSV
# UniProt O60888: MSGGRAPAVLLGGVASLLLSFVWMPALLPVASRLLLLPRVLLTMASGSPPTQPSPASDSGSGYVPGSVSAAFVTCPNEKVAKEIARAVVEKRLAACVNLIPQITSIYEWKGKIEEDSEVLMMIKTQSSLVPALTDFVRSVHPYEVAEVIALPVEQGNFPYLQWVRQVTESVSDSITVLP
# UniProt Q7Z7A3: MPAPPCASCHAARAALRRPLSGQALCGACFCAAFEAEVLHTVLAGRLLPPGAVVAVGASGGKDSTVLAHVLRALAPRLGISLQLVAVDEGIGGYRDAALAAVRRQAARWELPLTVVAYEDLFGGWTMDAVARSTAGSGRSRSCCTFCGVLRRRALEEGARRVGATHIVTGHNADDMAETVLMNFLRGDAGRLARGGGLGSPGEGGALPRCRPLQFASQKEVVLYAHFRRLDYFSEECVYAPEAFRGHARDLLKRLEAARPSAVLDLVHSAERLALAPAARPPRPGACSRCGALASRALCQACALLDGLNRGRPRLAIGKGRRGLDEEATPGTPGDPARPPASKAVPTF
# UniProt O75629: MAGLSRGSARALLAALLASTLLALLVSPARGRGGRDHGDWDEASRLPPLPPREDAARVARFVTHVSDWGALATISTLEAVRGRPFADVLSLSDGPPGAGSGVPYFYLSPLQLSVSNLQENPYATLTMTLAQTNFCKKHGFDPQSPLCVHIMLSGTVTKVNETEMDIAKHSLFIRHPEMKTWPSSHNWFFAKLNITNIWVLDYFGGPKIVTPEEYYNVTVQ
# UniProt P41240: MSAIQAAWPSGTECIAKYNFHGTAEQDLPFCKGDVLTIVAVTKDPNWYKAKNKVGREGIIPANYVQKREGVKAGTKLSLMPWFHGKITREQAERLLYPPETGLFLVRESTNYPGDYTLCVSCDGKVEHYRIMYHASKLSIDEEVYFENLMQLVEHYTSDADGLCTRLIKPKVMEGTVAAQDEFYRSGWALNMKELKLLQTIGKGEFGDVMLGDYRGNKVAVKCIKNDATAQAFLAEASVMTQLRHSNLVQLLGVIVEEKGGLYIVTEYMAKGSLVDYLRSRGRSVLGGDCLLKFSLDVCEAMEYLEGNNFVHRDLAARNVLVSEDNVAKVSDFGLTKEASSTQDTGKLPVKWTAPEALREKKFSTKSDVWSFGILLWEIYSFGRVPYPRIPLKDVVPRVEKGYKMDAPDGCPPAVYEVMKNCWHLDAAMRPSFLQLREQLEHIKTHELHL
# UniProt Q01459: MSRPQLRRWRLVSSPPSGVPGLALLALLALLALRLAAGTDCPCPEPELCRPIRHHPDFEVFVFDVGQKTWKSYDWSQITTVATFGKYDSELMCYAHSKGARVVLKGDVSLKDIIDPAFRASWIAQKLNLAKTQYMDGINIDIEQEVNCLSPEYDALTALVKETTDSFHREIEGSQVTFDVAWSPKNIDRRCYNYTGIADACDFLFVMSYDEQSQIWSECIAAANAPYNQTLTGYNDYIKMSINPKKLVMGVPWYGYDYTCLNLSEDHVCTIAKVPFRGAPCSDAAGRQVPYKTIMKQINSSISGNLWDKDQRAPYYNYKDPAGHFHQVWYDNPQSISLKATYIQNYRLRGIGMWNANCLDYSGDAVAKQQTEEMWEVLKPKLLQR
# UniProt Q7L1T6: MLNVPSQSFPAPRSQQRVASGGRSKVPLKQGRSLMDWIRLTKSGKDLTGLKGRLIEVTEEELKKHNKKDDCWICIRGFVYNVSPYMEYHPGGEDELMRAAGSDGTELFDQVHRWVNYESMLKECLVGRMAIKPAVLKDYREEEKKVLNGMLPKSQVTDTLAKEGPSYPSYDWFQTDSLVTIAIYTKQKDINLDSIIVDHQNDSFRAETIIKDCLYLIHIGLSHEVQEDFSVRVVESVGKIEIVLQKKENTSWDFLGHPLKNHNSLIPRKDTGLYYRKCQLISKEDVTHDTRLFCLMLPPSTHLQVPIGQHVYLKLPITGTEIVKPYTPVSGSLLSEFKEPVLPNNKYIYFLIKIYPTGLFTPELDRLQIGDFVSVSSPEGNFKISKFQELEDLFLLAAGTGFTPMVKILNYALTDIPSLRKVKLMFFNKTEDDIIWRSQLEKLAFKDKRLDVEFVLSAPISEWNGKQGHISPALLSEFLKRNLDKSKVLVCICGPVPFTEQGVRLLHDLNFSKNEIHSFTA
# UniProt Q13616, whole entry, looked up: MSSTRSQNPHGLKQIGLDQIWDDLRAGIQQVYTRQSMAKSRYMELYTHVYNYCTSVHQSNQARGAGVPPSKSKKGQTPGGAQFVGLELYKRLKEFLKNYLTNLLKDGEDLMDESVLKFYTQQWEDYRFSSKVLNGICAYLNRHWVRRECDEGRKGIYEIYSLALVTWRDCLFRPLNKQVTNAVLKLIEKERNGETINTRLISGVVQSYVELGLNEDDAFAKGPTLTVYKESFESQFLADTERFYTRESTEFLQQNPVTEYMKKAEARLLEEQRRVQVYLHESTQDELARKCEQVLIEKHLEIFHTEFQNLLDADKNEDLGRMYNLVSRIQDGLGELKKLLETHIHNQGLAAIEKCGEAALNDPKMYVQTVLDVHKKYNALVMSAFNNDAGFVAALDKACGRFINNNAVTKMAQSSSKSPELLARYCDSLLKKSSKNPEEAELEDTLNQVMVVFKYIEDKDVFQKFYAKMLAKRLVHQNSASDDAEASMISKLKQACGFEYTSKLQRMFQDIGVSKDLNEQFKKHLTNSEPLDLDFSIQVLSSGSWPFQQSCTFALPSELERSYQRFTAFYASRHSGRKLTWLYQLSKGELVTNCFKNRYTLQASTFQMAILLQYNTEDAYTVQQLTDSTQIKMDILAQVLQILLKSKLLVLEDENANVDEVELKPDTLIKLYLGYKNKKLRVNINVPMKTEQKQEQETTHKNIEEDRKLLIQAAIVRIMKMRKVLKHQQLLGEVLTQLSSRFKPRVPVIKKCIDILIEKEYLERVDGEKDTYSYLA
# Assays:
# Experiment in all cases: log2 fold change, soluble protein after heating vs DMSO (PISA); higher = thermal stabilisation; K562 lysate, 10 uM; active = over 0.2 and 3.5 SD of the protein, either way, in both replicates (recomputed)
# erlotinib = compound: C#Cc1cccc(Nc2ncnc3cc(OCCOC)c(OCCOC)cc23)c1 [erlotinib]
# How it was run: (§1)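 Thermal stability, expressed as log-two fold change relative to solvent controls, is given from duplicates. Crude K562 extract in PBS pH 7.4 with 1 mM MgCl2, at 1 mg/mL protein, was treated with 10 μM compound for 30 min and heated in aliquots for 3 min across 48°C-58°C. After pooling, adjustment to 0.5% NP-40 at 4°C and centrifugation at 21,000xg for 90 min, supernatant protein was measured by TMTpro 16plex LC-MS/MS with channel sums equalised.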
# [1] = compound: C/C(=N\NC(=O)C1=CC(=CC=C1)S(=O)(=O)N2CCOCC2)/C3=C(C=CC(=C3)Cl)O
# How it was run: as §1
# [2] = compound: C1=CC(=CC=C1C2=NC3=C(N2)C=C(C=C3)C(=O)N)OC4=CC=C(C=C4)Cl
# How it was run: as §1
# [3] = compound: C1=CC2=C(C=CC(=C2)/C=C\3/C(=O)NC(=NCC4=CC=CS4)S3)N=C1
# How it was run: as §1
# [4] = compound: C1=CC2=NC=CN=C2C=C1/C=C/3\C(=O)NC(=O)S3
# How it was run: as §1
# [5] = compound: C1=CC=C(C=C1)C2=NC(=C(N2)C3=CC=NC=C3)C4=CC(=C(C=C4)Cl)O
# How it was run: as §1
# [6] = compound: C1=CC=C2C(=C1)C3=NNC4=CC=CC(=C43)C2=O
# How it was run: as §1
# [7] = compound: C1CCN(C1)C(=O)NC2=CC=CC(=C2)NC3=NC=C(C(=N3)NCCC4=CN=CN4)Br
# How it was run: as §1
# [8] = compound: C1CN(CCC1(CC2=CC=C(C=C2)Cl)N)C3=NC=NC4=C3C=CN4
# How it was run: as §1
# IRAK-1-4 Inhibitor I = compound: C1COCCN1CCN2C3=CC=CC=C3N=C2NC(=O)C4=CC(=CC=C4)[N+](=O)[O-] [IRAK-1-4 Inhibitor I]
# How it was run: as §1
# ibrutinib = compound: C=CC(=O)N1CCC[C@@H](n2nc(-c3ccc(Oc4ccccc4)cc3)c3c(N)ncnc32)C1 [ibrutinib]
# How it was run: as §1
# [9] = compound: CC(=O)c1cnc2ccc(-c3cc(Cl)c(O)c(Cl)c3)nc2c1N[C@H]1CC[C@H](CN(C)C)CC1
# How it was run: as §1
# ralimetinib = compound: CC(C)(C)Cn1c(N)nc2ccc(-c3[nH]c(C(C)(C)C)nc3-c3ccc(F)cc3)nc21 [ralimetinib]
# How it was run: as §1
# [10] = compound: CC(C)(O)CC(=O)NCCn1ccc2ncnc(Nc3ccc(Oc4cccc(C(F)(F)F)c4)c(Cl)c3)c21
# How it was run: as §1
# [11] = compound: CC(C)C1=C2N=C(C=C(N2N=C1)NCC3=CC=CC=C3)NCCCCCCN
# How it was run: as §1
# [12] = compound: CC1=C(C(CC(=O)N1)C2=CC=C(C=C2)C(F)(F)F)C(=O)NC3=C(C=C4C(=C3)C=NN4)F
# How it was run: as §1
# [13] = compound: CC1=C(C2=C(C=C1)C(=O)C3=CC=CC=C3N2CCCN)C
# How it was run: as §1
# [14] = compound: CC1=C(C=C(C=C1)NC(=O)C2=CC(=CC=C2)C(C)(C)C#N)NC3=CC4=C(C=C3)N=CN(C4=O)C
# How it was run: as §1
# [15] = compound: CC1=C(C=C(C=C1)NC(=O)C2=CC(=CC=C2)N(C)C)NC(=O)C3=CC=C(C=C3)O
# How it was run: as §1
# [16] = compound: CC1=CC=C(C=C1)SC2=C3C=C(SC3=CN=C2)C(=O)N
# How it was run: as §1
Target,log2 fold change (erlotinib),log2 fold change [1],log2 fold change [2],log2 fold change [3],log2 fold change [4],log2 fold change [5],log2 fold change [6],log2 fold change [7],log2 fold change [8],log2 fold change (IRAK-1-4 Inhibitor I),log2 fold change (ibrutinib),log2 fold change [9],log2 fold change (ralimetinib),log2 fold change [10],log2 fold change [11],log2 fold change [12],log2 fold change [13],log2 fold change [14],log2 fold change [15],log2 fold change [16]
CRIPT (UniProt Q9P021),inactive: 0.012,inactive: -0.027,inactive: -0.051,inactive: -0.008,inactive: 0.057,inactive: -0.018,inactive: 0.014,inactive: 0.002,inactive: 0.019,inactive: 0.042,inactive: 0.126,inactive: 0.037,inactive: 0.032,inactive: -0.043,inactive: -0.095,inactive: 0.085,inactive: 0.004,inactive: 0.037,inactive: 0.002,inactive: 0.05
CUTA isoform 2 (UniProt O60888),inactive: 0.018,inactive: 0.035,inactive: -0.02,inactive: -0.005,inactive: -0.002,inactive: -0.014,inactive: -0.075,inactive: 0.02,inactive: 0.056,inactive: 0.037,inactive: 0.036,inactive: -0.013,inactive: 0.01,inactive: -0.02,inactive: 0.013,inactive: -0.034,inactive: 0.036,inactive: 0.104,inactive: -0.016,inactive: 0.101
CTU1 (UniProt Q7Z7A3),inactive: 0.024,inactive: -0.09,inactive: 0.044,inactive: 0.002,inactive: 0.005,inactive: 0.011,inactive: -0.06,inactive: -0.025,inactive: 0.037,inactive: 0.007,inactive: -0.009,inactive: 0.007,inactive: 0.004,inactive: -0.024,inactive: -0.008,inactive: 0.013,inactive: -0.051,inactive: -0.004,inactive: 0.014,inactive: 0.009
CREG1 (UniProt O75629),inactive: 0.023,inactive: 0.169,inactive: -0.101,inactive: 0.014,inactive: -0.001,inactive: 0.018,inactive: 0.012,inactive: 0.048,inactive: -0.027,inactive: 0.006,inactive: 0.07,inactive: 0.018,inactive: 0.044,inactive: -0.02,inactive: 0.018,inactive: 0.084,inactive: 0.008,inactive: -0.045,inactive: -0.029,inactive: 0.051
CSK (UniProt P41240),inactive: 0.045,inactive: -0.025,inactive: -0.004,inactive: -0.028,inactive: -0.035,inactive: 0.031,inactive: 0.106,inactive: 0.107,inactive: 0.033,inactive: 0.053,active: 0.891,inactive: 0.242,inactive: 0,inactive: 0.181,inactive: 0,inactive: -0.086,inactive: -0.04,active: 0.626,inactive: -0.015,inactive: -0.054
CTBS (UniProt Q01459),inactive: 0.024,inactive: -0.073,inactive: 0.04,inactive: 0.013,inactive: 0.005,inactive: 0.006,inactive: 0.048,inactive: -0.011,inactive: -0.007,inactive: 0.027,inactive: 0.078,inactive: -0.023,inactive: 0.011,inactive: -0.024,inactive: 0.007,inactive: 0.033,inactive: -0.016,inactive: 0.019,inactive: -0.039,inactive: -0.007
CYB5R4 (UniProt Q7L1T6),inactive: 0.05,inactive: -0.031,inactive: 0.069,inactive: 0.018,inactive: 0,inactive: 0.048,inactive: 0,inactive: -0.016,inactive: -0.034,inactive: 0.001,inactive: -0.018,inactive: 0.035,inactive: 0.033,inactive: -0.075,inactive: 0.094,inactive: -0.064,inactive: 0.009,inactive: 0.007,inactive: 0.029,inactive: -0.053
CUL1 (UniProt Q13616),inactive: -0.011,inactive: 0.006,inactive: 0.026,inactive: 0.01,inactive: 0.009,inactive: -0.011,inactive: 0.017,inactive: 0,inactive: -0.006,inactive: -0.013,inactive: 0.02,inactive: 0.005,inactive: -0.004,inactive: -0.016,inactive: -0.018,inactive: -0.014,inactive: 0.016,inactive: 0.02,inactive: -0.001,inactive: -0.01

# Reference: the supplement of paper PMC10849652
